Data as given in PubChem BioAssay AID1259254 (NCATS, 2017).

- Assay: 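Gene knock-downs that lead to re-replication, shown by excess G2 DNA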 (primary screen)
- Cells: human HCT116 colorectal cancer cells
- Reagent: single siRNA against human genes
- Duration: 3 days
- Measured: 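Nuclei stained with Hoechst and imaged; cell-cycle phase assigned by DNA content; G2 share scaled per plate, non-targeting siRNA 0%, GMNN siRNA 100%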
- Scale: G2 robust z-score: higher = more G2 cells, more excess DNA replication
- Active means: 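Active siRNAs have a G2 robust z of 5 or more median absolute deviations over the median, which in these data means about 38% or higher of GMNN control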
The deposit covers about 59,000 reagents; this is an unselected part. About 1,550 of all reagents (2.6%) were called active. 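G2 share is only a proxy for re-replication; each gene was hit by three separate siRNAs, and active genes were retested.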 The numbers tell different reagents against one gene apart. Not all columns of the deposit are shown. Not stated in the record: the amount of reagent.

How did the screen score POU3F3 (POU class 3 homeobox 3) #1?
G2 robust z-score: -0.821; activity call: inactive

With POU3F3 (POU class 3 homeobox 3) #2, what does the deposit list?
G2 robust z-score: 0.367; activity call: inactive

Which result is listed for POU3F3 (POU class 3 homeobox 3) #3?
G2 robust z-score: 0.525; activity call: inactive

What is on record for PLGLB2 (plasminogen like B2) #1?
G2 robust z-score: -0.603; activity call: inactive

How did the screen score PLGLB2 (plasminogen like B2) #2?
G2 robust z-score: 0.683; activity call: inactive

With PLGLB2 (plasminogen like B2) #3, what does the deposit list?
G2 robust z-score: -0.315; activity call: inactive

What did the screen give for CLPSL2 (colipase like 2) #1?
G2 robust z-score: 0.272; activity call: inactive

With CLPSL2 (colipase like 2) #2, what was measured?
G2 robust z-score: 0.264; activity call: inactive

What is on record for CLPSL2 (colipase like 2) #3?
G2 robust z-score: -0.902; activity call: inactive

Which result is listed for SRSF2 (serine and arginine rich splicing factor 2) #1?
G2 robust z-score: -1.79; activity call: inactive

With SRSF2 (serine and arginine rich splicing factor 2) #2, what was measured?
G2 robust z-score: -1.16; activity call: inactive

For SRSF2 (serine and arginine rich splicing factor 2) #3, what does the deposit list?
G2 robust z-score: 3.05; activity call: inactive

3 of these entries, reformatted:
target,reagent,G2 robust z-score,activity call
CLPSL2 (colipase like 2),3,-0.902,inactive
SRSF2 (serine and arginine rich splicing factor 2),1,-1.79,inactive
SRSF2 (serine and arginine rich splicing factor 2),2,-1.16,inactive

Additional results follow:
How did the screen score PNCK (pregnancy up-regulated nonubiquitous CaM kinase) #1?
G2 robust z-score: 4.28; activity call: inactive

Which result is listed for PNCK (pregnancy up-regulated nonubiquitous CaM kinase) #2?
G2 robust z-score: -1.61; activity call: inactive

What did the screen give for PNCK (pregnancy up-regulated nonubiquitous CaM kinase) #3?
G2 robust z-score: -0.106; activity call: inactive

For RHO (rhodopsin) #1, what does the deposit list?
G2 robust z-score: 6.11; activity call: active

How did the screen score RHO (rhodopsin) #2?
G2 robust z-score: -0.914; activity call: inactive

With RHO (rhodopsin) #3, what was measured?
G2 robust z-score: -0.574; activity call: inactive

With LY96 (lymphocyte antigen 96) #1, how do the results read?
G2 robust z-score: 1.11; activity call: inactive

With LY96 (lymphocyte antigen 96) #2, what does the deposit list?
G2 robust z-score: -1.06; activity call: inactive

For LY96 (lymphocyte antigen 96) #3, how do the results read?
G2 robust z-score: 0.268; activity call: inactive

What did the screen give for GSDMA (gasdermin A) #1?
G2 robust z-score: 0.555; activity call: inactive

For GSDMA (gasdermin A) #2, what was measured?
G2 robust z-score: 0.704; activity call: inactive

With GSDMA (gasdermin A) #3, how do the results read?
G2 robust z-score: -0.016; activity call: inactive

For SEC23B (SEC23 homolog B, COPII component) #1, what does the deposit list?
G2 robust z-score: 3.55; activity call: inactive

With SEC23B (SEC23 homolog B, COPII component) #2, what was measured?
G2 robust z-score: -0.644; activity call: inactive

What is on record for SEC23B (SEC23 homolog B, COPII component) #3?
G2 robust z-score: -0.446; activity call: inactive

With EEF1DP6 #1, how do the results read?
G2 robust z-score: 0.352; activity call: inactive

How did the screen score EEF1DP6 #2?
G2 robust z-score: -0.157; activity call: inactive

What did the screen give for EEF1DP6 #3?
G2 robust z-score: -0.524; activity call: inactive
